{
  "sequences": {"note": "Sequences of proteins named here, by UniProt entry; tags and fusion partners are left off. A change or cut given only in a name is not applied to a line headed by its entry. A line that says so, or that is headed by a name, gives the form on record, which may keep a tag or linker. Residues count along the entry.", "UniProt P09038, residues 143-288": "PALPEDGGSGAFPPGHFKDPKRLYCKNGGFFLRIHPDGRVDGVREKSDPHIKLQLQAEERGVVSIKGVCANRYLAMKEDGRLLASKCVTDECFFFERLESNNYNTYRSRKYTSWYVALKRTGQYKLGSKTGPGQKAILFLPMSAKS", "recombinant extracellular ligand binding domain of human FGFR1 (FGFR1-L) (P11362-7, form named)": "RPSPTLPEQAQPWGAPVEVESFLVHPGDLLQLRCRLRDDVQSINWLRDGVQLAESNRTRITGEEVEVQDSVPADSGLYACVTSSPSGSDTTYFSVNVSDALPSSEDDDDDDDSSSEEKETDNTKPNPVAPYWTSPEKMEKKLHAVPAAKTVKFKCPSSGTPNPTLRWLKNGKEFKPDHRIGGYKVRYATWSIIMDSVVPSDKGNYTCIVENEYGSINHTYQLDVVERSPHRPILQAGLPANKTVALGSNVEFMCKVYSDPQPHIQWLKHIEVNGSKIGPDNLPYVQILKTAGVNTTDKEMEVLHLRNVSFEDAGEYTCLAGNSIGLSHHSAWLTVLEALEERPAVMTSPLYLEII"},
  "source": "paper PMC9257043",
  "target": "human basic FGF (bFGF) (human) (UniProt P09038)",
  "assay": "BLI; Octet RED 96; biotinylated human bFGF (8 ng/μl) immobilised on Biosensors, rSmFGFRA-L and human FGFR1-L as analytes at 30 ng/μl and 23 ng/μl; kinetic buffer; 30°C, 1000 rpm; both purified",
  "note": "Results are given in words; binding and its absence hold for the method and conditions named. Some entries that bind do so weakly or less than the wild type.",
  "data": [
    {"substance": "recombinant extracellular ligand binding domain of human FGFR1 (FGFR1-L) (from UniProt P11362-7 22-376) (domain or fragment)", "values": [
      {"measurement": "binding", "result": "binds"}
    ]}
  ]
}
